“And” between values parts separate entries of the source, which are not always exact repeats. Identical values can stand only once. Counter-ions that a name gives are not always drawn. This is one part of the list. Single values are uncertain here, since repeats match poorly.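 The human kidney-derived cells carry a stably integrated construct of eight TEAD-binding elements driving luciferase, read by luminescence in a drug-repurposing library screen. A compound counts as a hit when its signal is more than five robust Z scores above the plate mean.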
System: HEK293A TEAD-LUC reporter
Test: TEAD-luciferase reporter activity (YAP activation), robust Z score vs plate; higher = stronger YAP/TEAD activation
Settings: 24 h

SMILES | TEAD-luciferase reporter activity (compound concentration: 200 nM) | TEAD-luciferase reporter activity (compound concentration: 10 uM) | TEAD-luciferase reporter activity (compound concentration: 2 uM)
CN(C(=O)Cc1ccc(Cl)c(Cl)c1)C(CN1CCCC1)c1cccc(OCC(=O)O)c1 (stereo not given) [ICI 204,448 hydrochloride] | inactive: 0.0293 | inactive: 0.764 | –
CN(C(=O)Cc1ccc(Cl)c(Cl)c1)C(CN1CCCC1)c1cccc(OCC(=O)O)c1 (stereo not given) | – | – | inactive: 1.36
c1cc2c(c(N3CCNCC3)c1)OCCO2 [eltoprazine] | inactive: -0.867 | inactive: -1.2 | inactive: 2.15
CCOP(=S)(OCC)Oc1cc(C)nc(C(C)C)n1 | inactive: 0.284 | inactive: 0.61 | inactive: -0.234
CCCC(C)(COC(N)=O)COC(N)=O [Meprobamate (Schedule Iv)] | inactive: 1.82 | inactive: 1.68 | –
CC(C)Cn1c(=O)cc(C(=O)O[C@H]2C[C@H]3CC[C@@H](C2)N3C)c2ccccc21 | inactive: 0.526 | inactive: -0.568 | inactive: -1.51
Cc1occc1CN1CC[C@]2(C)c3cc(O)ccc3C[C@H]1[C@H]2C | inactive: -0.304 | inactive: -0.355 | inactive: -1.33
COC(=O)C1C(OC(=O)c2ccccc2)CC2CCC1N2C (stereo not given) | inactive: 2.28 | inactive: 0.496 | inactive: -1.01
O=C(C1CCCN1C(=O)c1ccc(C(F)(F)F)cc1)N1CCC(N2CCCC2=O)CC1 (stereo not given) | inactive: -0.917 | inactive: -0.666 | –
Nc1c(Cl)cc(C(=O)NCC2CN3CCN2CC3)c2c1OCCO2 (stereo not given) | inactive: 1.39 | inactive: 0.476 | inactive: -1.57
NC(=O)c1cc([N+](=O)[O-])cc([N+](=O)[O-])c1 [3,5-Dinitrobenzamide] | inactive: -1.03 | inactive: -0.423 | –
NC(=O)c1cc([N+](=O)[O-])cc([N+](=O)[O-])c1 [Nitromide] | – | – | inactive: 0.961
Cc1ccccc1CN1CCN(CCOC(c2ccccc2)c2ccccc2Cl)CC1 (stereo not given) | inactive: -1.52 | inactive: 1.77 | inactive: 0.202
COc1ccc(OC)c(C(O)C(C)NC(C)(C)C)c1 (stereo not given) | inactive: -0.846 | inactive: 0.519 | inactive: -1.48
COc1cccc(C(=O)CCNC(C)C(O)c2ccccc2)c1 (stereo not given) [Oxyfedrine hydrochloride] | inactive: 0.507 | inactive: -0.0521 | inactive: 1.45
CCOC(=O)c1cncn1[C@H](C)c1ccccc1 | inactive: -1.29 | inactive: -0.76 | –
CCOC(=O)c1cncn1[C@H](C)c1ccccc1 [etomidate] | – | – | inactive: -0.414
Cn1cc(C(=O)c2cccc3ccccc23)cc1C(=O)O [Napirimus] | inactive: -0.195 | inactive: -0.971 | inactive: -0.876
O=C1C[C@@H]2OCC=C3CN4CC[C@]56c7ccccc7N1[C@H]5[C@H]2[C@H]3C[C@H]46 | inactive: 1.9 | inactive: 3 | inactive: -0.242
CCCN(CCC)Cc1cnc(-c2ncn3c2CN(C)C(=O)c2cc(F)ccc2-3)o1 | inactive: -0.419 | inactive: -0.408 | inactive: -0.207
COc1cccc(C2(O)CCN(C[C@H](O)COc3cccc4[nH]ccc34)CC2)c1 | inactive: -0.663 | inactive: 4.25 | inactive: -0.167
Cc1c(Cl)c(=O)oc2cc(OP(=O)(OCCCl)OCCCl)ccc12 | inactive: -0.706 | inactive: 0.0627 | inactive: -0.348

SMILES | TEAD-luciferase reporter activity (compound concentration: 200 nM) | TEAD-luciferase reporter activity (compound concentration: 10 uM) | TEAD-luciferase reporter activity (compound concentration: 2 uM)
CC(=O)N(C)c1cccc(-c2ccnc3c(C(=O)c4cccs4)cnn23)c1 [Indiplon] | inactive: -0.983 | inactive: 0.547 | inactive: -0.768
CCCN1C[C@@H](c2ccc(N)nc2)OC[C@@H]1C | inactive: 0.942 | inactive: 2.87 | inactive: 0.257
CCOC(=O)CC1CCN(CCOC(c2ccccc2)c2ccccc2)CC1 | inactive: -1.2 | inactive: -0.232 | inactive: -0.285
NC1CCN(c2cccnc2)C1 (stereo not given) | inactive: -0.628 | inactive: -0.67 | inactive: -0.0416
CC1(C)CCC(C)(C)c2c1cc(C(=O)Nc1cc(F)c(C(=O)O)c(F)c1)c(O)c2Cl | inactive: 0.427 | inactive: -0.345 | inactive: 2.11
CC[N+](C)(CC)CCOC(=O)C(O)(c1ccccc1)c1ccccc1 | inactive: -0.492 | inactive: 0.402 | inactive: 0.181
C/C=C(\C)C(=O)O[C@@H]1C[C@H]2CC[C@@H](C1)N2C | inactive: -0.223 | inactive: -1.97 | inactive: 0.462
O=P(O)(NCCCl)NCCCl [Palifosfamide] | inactive: 0.211 | inactive: 0.177 | inactive: -1.45
O=P(O)(NCCCl)NCCCl [palifosfamide] | – | – | inactive: -0.925
C[C@@H]1O[C@@H](O[C@@H]2C=C3CC[C@@H]4C(CC[C@]5(C)[C@@H](c6ccc(=O)oc6)CC[C@]45O)[C@@]3(C)CC2)[C@H](O)[C@H](O)[C@H]1O (stereo not given in full) [Proscillaridin] | active: 14 | inactive: 4.55 | inactive: -2.75
Oc1ccc2[nH]cc(CCCCN3CC=C(c4ccccc4)CC3)c2c1 [Roxindole] | inactive: -1.17 | active: 8.93 | inactive: -1.18
C/C=C/CC1(CC)C(=O)NC(=O)NC1=O | inactive: -0.926 | inactive: 1.74 | inactive: 0.271
Cl[Te-]1(Cl)(Cl)OCCO1 [ammonium trichlorotellurate] | – | – | inactive: 2.27
Cl[Te-]1(Cl)(Cl)OCCO1 [_:_2016-03-02: ammonium trichlorotellurate] | – | – | inactive: 0.62
Cl[Te-]1(Cl)(Cl)OCCO1 [2016-03-02: ammonium trichlorotellurate] | inactive: -0.546 | inactive: -0.22 | –
CC(C)(C)C(=O)NNCc1ccccc1 | active: 8.03 | inactive: 1.38 | inactive: 0.728
CN1C2CCC1CC(OC(=O)C1(c3ccccc3)CCCC1)C2 (stereo not given) | inactive: -4.15 | inactive: -1.58 | inactive: -0.231
CCOC(=O)C1(c2ccccc2)CCN(CCc2ccc(NC(=O)C(C)N)cc2)CC1 (stereo not given) | inactive: 0.407 | inactive: 0.444 | inactive: -0.0792
CN(C)C[C@H]1CCCC[C@]1(O)c1cccc(O)c1 [O-Desmethyltramadol] | inactive: 1.22 | inactive: 0.24 | inactive: -0.773
Clc1ccc(C(OCCN2CCCCC2)c2ccccc2)cc1 (stereo not given) | inactive: 0.621 | inactive: -0.704 | inactive: 1.6
C#CC[C@]12CCC(=O)C=C1CC[C@@H]1[C@@H]2CC[C@]2(C)C(=O)CC[C@@H]12 [Plomestane] | inactive: -1.14 | inactive: 1.63 | inactive: -1.57
CNC(=O)NC(O)C(Cl)(Cl)Cl (stereo not given) | inactive: 1.1 | inactive: -0.101 | inactive: -2.15

SMILES | TEAD-luciferase reporter activity (compound concentration: 200 nM) | TEAD-luciferase reporter activity (compound concentration: 10 uM) | TEAD-luciferase reporter activity (compound concentration: 2 uM)
O=C(Nc1ccccc1)c1c(O)nc(S)nc1O [Merbarone] | – | – | inactive: 1.84
O=C(Nc1ccccc1)c1c(O)nc(S)nc1O [merbarone] | inactive: -0.285 | inactive: -0.0155 | inactive: 3.93
CCN1[C@@H]2CC[C@H]1C[C@@H](OC(c1ccccc1)c1ccccc1)C2 | inactive: 3.97 | inactive: 4.23 | inactive: -0.842
Clc1ccc(C2=Cc3ccccc3C3=NCCN23)cc1 | inactive: -0.317 | inactive: -0.669 | inactive: 1.79
Oc1noc2c1CCNC2 [Gaboxadol] | inactive: 0.578 | inactive: 0.0179 | inactive: 0.274
O=C(NP(=O)(N1CC1)N1CC1)OCc1ccccc1 | inactive: -1.45 | inactive: 4.99 | inactive: 3.37
CN1C2CC(OC(=O)C(CO)c3ccccc3)CC1C1OC12 (stereo not given) [scopolamine, Epiomed] | inactive: 0.383 | inactive: 2.95 | inactive: -1.35
O=c1[nH]c2ccccc2n1C1CCNCC1 | inactive: -0.233 | inactive: -1.17 | inactive: 1.41
Cc1c(F)cccc1[C@H]1COC(N)=N1 | inactive: 1.44 | inactive: 2.69 | inactive: -1.61
CC(C)n1cc2c3c(cccc31)[C@H]1C[C@@H](C(=O)N[C@H]3CCC[C@H]3O)CN(C)[C@@H]1C2 | inactive: 2.1 | inactive: -0.746 | inactive: -1.69
COc1ccc(Cc2nccc3cc(OC)c(OC)cc23)cc1OC [papaverine, S-P] | inactive: -0.591 | inactive: 4.38 | –
COc1ccc(Cc2nccc3cc(OC)c(OC)cc23)cc1OC [papaverine] | – | – | inactive: -1.58
Clc1ccc2c(c1)C(c1ccccc1Cl)=NCc1nncn1-2 | inactive: 2.2 | inactive: 0.317 | inactive: -1.8
CN(C)C(=O)Oc1cc(OC(=O)N(C)C)cc(C(O)CNC(C)(C)C)c1 (stereo not given) [levobambuterol] | inactive: 0.171 | inactive: 0.303 | inactive: -0.981
CCC(Sc1ccccc1)C(=O)O[C@H]1C[C@H]2CC[C@@H](C1)N2C (stereo not given in full) | inactive: -0.722 | inactive: 0.843 | inactive: -1.54
O=C(Nc1c(Cl)cncc1Cl)C(=O)c1cn(Cc2ccc(F)cc2)c2ccc(O)cc12 | inactive: -1.2 | inactive: 3.61 | inactive: 1.2 and inactive: -0.346
C=CCN1C[C@H](C)N([C@H](c2ccc(C(=O)N(CC)CC)cc2)c2cccc(OC)c2)C[C@H]1C | inactive: -0.914 | inactive: 2.1 | inactive: -0.142
C[C@H]1[C@H](N2CCS(=O)(=O)CC2)O[C@@H]2O[C@@]3(C)CC[C@H]4[C@H](C)CC[C@@H]1[C@@]24OO3 | inactive: -0.488 | inactive: -0.913 | inactive: -2.36
C=C(Br)CC1(C(C)C)C(=O)NC(=O)NC1=O | inactive: -1.03 | inactive: -0.419 | inactive: -0.554
CCC(=O)O[C@](Cc1ccccc1)(c1ccccc1)[C@@H](C)CN(C)C | inactive: -0.596 | inactive: 1.83 | inactive: -0.598
CCOC(=O)CCN(c1nc(-c2ccc(/C(N)=N\C(=O)OCC)cc2)cs1)C1CCN(CC(=O)OCC)CC1 | inactive: -0.191 | inactive: 3.25 | inactive: -0.667
CC(C)[C@H]1C(=O)O[C@H](C(C)C)C(=O)N(C)[C@@H](C(C)C)C(=O)O[C@H](C(C)C)C(=O)N(C)[C@@H](C(C)C)C(=O)O[C@H](C(C)C)C(=O)N1C [Enniatin B] | inactive: -0.811 | inactive: -3 | inactive: -0.0519

From the supplement of paper PMC10735217
